PubChem BioAssay AID504791 | Drosophila RNAi Screening Center | 2011
Screen: 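Genes whose knock-down strengthens or weakens small-RNA reporter silencing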 (primary screen). System: Drosophila S2-derived reporter cells. Knock-down reagent: long dsRNA against Drosophila genes, about 150-250 ng dsRNA per well (siRNA assay); about 80-120 ng (miRNA assay). Time to read-out: about 5 days (siRNA assay); about 4 days (miRNA assay). Challenge: copper sulfate induction of reporters: 25 µM (siRNA assay); 200 mM stated (miRNA assay), 1-2 days before reading. Measured: 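Dual luciferase assay: Renilla to firefly signal ratio in each well, scaled to the mean ratio of its plate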. Reading the numbers: siRNA reporter hit score: higher = 3 marks a strong hit with raised ratio; -3 a strong hit with lowered ratio. Rule for the call: 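First-pass picks had plate-scaled ratios over 1.5 for the siRNA assay, over 1.6 for the miRNA assay, or under 0.6; two distinct dsRNAs had to score alike on retest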.
The deposit covers about 23,000 reagents; shown is a random part of those with a known target gene and a result. In the full data, 199 (0.86%) got an active call. 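Plate-scaled ratios behind the calls are not deposited; printed light signals are raw; many rows marked increased or decreased are still called inactive.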 Names joined by + are all predicted targets of the reagent.

no.	Target gene	amplicon	siRNA reporter hit score	stable siRNA reporter change	miRNA reporter change	stable assay Renilla, run 1 (luminescence)	stable assay firefly, run 1 (luminescence)	call
1	CG30271	DRSC04170				6450	3.66e5	inactive
2	Gfrl	DRSC15197				9415	3.14e5	inactive
3	Gfrl	DRSC15199				7091	3.31e5	inactive
4	Gfrl	DRSC15565				8238	3.69e5	inactive
5	Gfrl	DRSC15719				8411	3.50e5	inactive
6	sno	DRSC20378		reporter ratio lowered past the hit cutoff		4454	5.14e5	inactive
7	yata	DRSC15408				6648	3.51e5	inactive
8	Cpr62Ba	DRSC08403				5459	3.04e5	inactive
9	Cyp316a1	DRSC11130				6499	3.75e5	inactive
10	flap	DRSC03918				5310	3.48e5	inactive
11	flap	DRSC04087			reporter ratio lowered past the hit cutoff	1.44e5	1.18e6	inactive
12	Sld5	DRSC14892				7699	3.70e5	inactive
13	side-V	DRSC04188				3375	2.95e5	inactive
14	side-V	DRSC04189				2424	2.82e5	inactive
15	side-V	DRSC22266				8438	4.15e5	inactive
16	hiro	DRSC08564			reporter ratio lowered past the hit cutoff	10831	3.89e5	inactive
17	nudC	DRSC11096			reporter ratio raised past the hit cutoff	6767	2.56e5	active
18	nudC	DRSC11097				7867	3.64e5	inactive
19	Irp-1A	DRSC16719				3940	3.65e5	inactive
20	CG10205	DRSC05979				5971	3.68e5	inactive
21	CG16986	DRSC08502				6695	3.37e5	inactive
22	vih	DRSC09778				8214	5.07e5	inactive
23	CG31705	DRSC01991				5272	4.12e5	inactive
24	Spn42Dd	DRSC05024				7015	5.27e5	inactive
25	Spn42Dd	DRSC22060				9514	6.20e5	inactive
26	CG8010	DRSC20072				6762	3.58e5	inactive
27	CG11529	DRSC09839				6835	3.41e5	inactive
28	CG3106	DRSC18279				8002	6.49e5	inactive
29	CG6845	DRSC08576				7738	4.59e5	inactive
30	PK2-R2	DRSC16448				6980	3.87e5	inactive
31	CG3534	DRSC15494				7466	3.75e5	inactive
32	gNacalpha	DRSC00654				8050	6.25e5	inactive
33	Coq4 + frc	DRSC10381				8179	3.76e5	inactive
34	Coq4 + frc	DRSC10382				7526	5.62e5	inactive
35	Prat	DRSC16797				8199	5.23e5	inactive
36	p23	DRSC15158				9839	5.49e5	inactive
37	plum	DRSC16054				8078	5.86e5	inactive
38	Skp2 + CG1103	DRSC12160				9683	4.38e5	inactive
39	Skp2 + CG1103	DRSC22356				9137	5.55e5	inactive
40	Mks1	DRSC19697				6654	6.67e5	inactive
41	Bruce	DRSC16015				7822	3.88e5	inactive
42	Dab	DRSC11140	3			5523	5.20e5	inactive
43	Fak	DRSC07426				6155	3.39e5	inactive
44	CG14195	DRSC19550				5070	3.35e5	inactive
45	CG3618	DRSC11746				8335	3.41e5	inactive
46	emc	DRSC08715				4275	3.57e5	inactive
47	emc	DRSC23238				4271	2.81e5	inactive
48	CG12347	DRSC14502				7864	5.02e5	inactive
49	CG14609	DRSC12553				7434	3.96e5	inactive
50	por	DRSC20362				4483	4.12e5	inactive
51	Trf5	DRSC00412				8933	6.07e5	inactive
52	Xxylt	DRSC04107				10560	1.80e6	inactive
53	CG1636	DRSC18111				4870	3.81e5	inactive
54	CG31223	DRSC15115				15462	4.13e5	inactive
55	Cam	DRSC07353				4931	4.76e5	inactive
56	Cam	DRSC07354				5183	3.31e5	inactive
57	CG9289	DRSC03187				7235	3.78e5	inactive
58	Upf1	DRSC19667			reporter ratio raised past the hit cutoff	11423	5.95e5	inactive
59	Vps60	DRSC10610				8062	4.01e5	inactive
60	Prx4	DRSC08668				6348	3.60e5	inactive
61	Polr1D + DCTN6-p27	DRSC02094				6498	4.80e5	inactive
62	CG42319	DRSC06645				5763	3.10e5	inactive
63	CG42319	DRSC06646				5943	3.11e5	inactive
64	CG42319	DRSC22426				3975	3.66e5	inactive
65	Nepl19	DRSC14875				3515	3.69e5	inactive
66	jigr1	DRSC13724				5536	4.42e5	inactive
67	jigr1	DRSC15233				5979	3.61e5	inactive
68	jigr1	DRSC22617				2931	3.17e5	inactive
69	NiPp1	DRSC07307				13229	3.88e5	inactive
70	Ggamma30A	DRSC02715				7720	4.31e5	inactive
71	Ggamma30A	DRSC03331				7634	4.18e5	inactive
72	Brms1	DRSC19896				6255	4.59e5	inactive
73	san	DRSC07695				5739	2.64e5	inactive
74	CG3739	DRSC15510				6816	3.21e5	inactive
75	Nek2	DRSC18124				3656	4.03e5	inactive
76	Ugt303B1	DRSC15141				5775	3.11e5	inactive
77	CG33262	DRSC22893				4208	3.93e5	inactive
78	CG3631	DRSC15503				9029	5.92e5	inactive
79	GATAd	DRSC02803				27982	5.21e5	inactive
80	CG12869	DRSC06208				6216	2.58e5	inactive
81	CG17140 + CG17139	DRSC02585				7491	3.84e5	inactive
82	CG17140 + CG17139	DRSC02586				7816	3.81e5	inactive
83	CG11456	DRSC11665				9298	3.48e5	inactive

Looked up above:
Cam [DRSC07353], call = inactive
Under “stable assay Renilla, run 1 (luminescence)”, PK2-R2 [DRSC16448] reads 6980
CG3106 [DRSC18279], stable assay firefly, run 1 (luminescence) → 6.49e5
Upf1 [DRSC19667], stable assay firefly, run 1 (luminescence): 5.95e5
